The source of these data is patent publication US9932522B2, “Electrochromic compound, electrochromic composition, display element, and dimming element” (Ricoh Company, Ltd., priority 2014, dated 2018).

The data set is described as follows: Coloring-discharging comparison test of display electrode with electrochromic display layer. The settings on record: compound adsorbed on titanium oxide particle film; for Discharged state (color): before applying the voltage; for Colored state (color): voltage of −1.5 V applied.

For `O=P(O)(O)CCCCCCCC[n+]1ccc(-c2ccc(-c3cncs3)cc2)cc1.[Br-]` [Compound 2b], the “Discharged state (color)” value is “colorless” and the “Colored state (color)” value is recorded as “yellow”.
As to `O=P(O)(O)CCCCCCCC[n+]1ccc(-c2ccc(-c3cccs3)cc2)cc1.[Br-]` [Compound 1b], the “Discharged state (color)” value was “pale yellow” and the “Colored state (color)” value is “yellow”.
The matching figures for `O=P(O)(O)CCCCCCCC[n+]1ccc(-c2ccc(-c3nccs3)cc2)cc1.[Br-]` [Compound 3b]: “colorless” and “yellow”.
Consider `O=P(O)(O)CCCCCCCC[n+]1ccc(-c2ccc(-c3ccccc3)cc2)cc1.[Br-]` [Comparative Compound 3, reference compound], for which the “Discharged state (color)” value was “colorless” and the “Colored state (color)” value is reported as “colorless”.
For `COc1nc(OC)nc(-c2ccc(-c3cc[n+](CCCCCCCCP(=O)(O)O)cc3)cc2)n1.[Br-]` [Compound 4b], the “Discharged state (color)” value is listed as “colorless” and the “Colored state (color)” value was “yellow”.
For `O=P(O)(O)CCCCCCCC[n+]1ccc(-c2ccc(-c3nc(-c4ccccc4)nc(-c4ccccc4)n3)cc2)cc1.[Br-]` [Compound 5b], the “Discharged state (color)” value was “colorless” and the “Colored state (color)” value is recorded as “green”.
Consider `O=P(O)(O)CCCCCCCC[n+]1cccc(-c2ccc(-c3cccs3)cc2)c1` [Compound 12b], for which the “Discharged state (color)” value is reported as “colorless” and the “Colored state (color)” value is “yellow”.
Turning to `O=P(O)(O)CCCCCCCC[n+]1ccc(-c2ccc(-c3ncccn3)cc2)cc1.[Br-]` [Compound 6b], the “Discharged state (color)” value is reported as “colorless” and the “Colored state (color)” value is recorded as “yellow”.
